Results deposited as PubChem BioAssay AID1259308 (NCATS, 2017).
Test: 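Genes whose loss raises luciferase production in HEK293 cells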 (primary screen). System: human HEK293 embryonic kidney cells stably expressing firefly luciferase (HEK-CMV-Luc2-Hygro). Knock-down reagent: single siRNA against human genes, 0.8 pmol siRNA per well. Timing: 72 h. Detection: 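Luciferase light (ONE-Glo) measured on one replicate plate set and viability (CellTiter-Glo) on the other, scaled to a negative control siRNA, with robust z-scores and luciferase per cell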. Direction: total luciferase, z-score: higher = more reporter protein produced. Rule for the call: 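Active when the median/MAD z-score for overall luciferase is greater than 3; a gene was taken forward for validation with new siRNAs if at least two of its three siRNAs passed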. Meaning of the calls: active = raised luciferase; inactive = no rise.
Shown is one part, drawn at random, of about 59,000 deposited reagents. About 1,510 of all reagents (2.6%) were called active. 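Calls use total luciferase alone and ignore viability, so some active siRNAs may act by altering cell number.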 Entries without a mark were called inactive. The numbers tell different reagents against one gene apart. Further read-outs or replicates are left out here.

{"Target gene": "TMEM79", "reagent no.": 1, "total luciferase, z-score": 0.864}
{"Target gene": "TMEM79", "reagent no.": 2, "total luciferase, z-score": 0.447}
{"Target gene": "TMEM79", "reagent no.": 3, "total luciferase, z-score": -1.11}
{"Target gene": "SPATA31J1", "reagent no.": 1, "total luciferase, z-score": 1.26}
{"Target gene": "SPATA31J1", "reagent no.": 2, "total luciferase, z-score": 0.516}
{"Target gene": "SPATA31J1", "reagent no.": 3, "total luciferase, z-score": -0.987}
{"Target gene": "SPATA31J1", "reagent no.": 4, "total luciferase, z-score": 2.66}
{"Target gene": "SPATA31J1", "reagent no.": 5, "total luciferase, z-score": 1.6}
{"Target gene": "SPATA31J1", "reagent no.": 6, "total luciferase, z-score": 0.23}
{"Target gene": "CHRDL2", "reagent no.": 1, "total luciferase, z-score": -0.761}
{"Target gene": "CHRDL2", "reagent no.": 2, "total luciferase, z-score": 1.34}
{"Target gene": "CHRDL2", "reagent no.": 3, "total luciferase, z-score": 1.24}
